Data taken from publication PMC7479175, “Selection of Potent Inhibitors of Soluble Epoxide Hydrolase for Usage in Veterinary Medicine” (Frontiers in Veterinary Science, 2020).
Some entries of the source have several records that differ or are many. The other results are left out here. The source may hold further records. Results that share an entry differ for a reason that is not stated; dose, time, organism, isomer or construct need not be as stated for each record.

The chains behind the UniProt entries cited, without tags or fusion partners. Residues count along the entry.
UniProt A0A8I3NJL8, 1-556: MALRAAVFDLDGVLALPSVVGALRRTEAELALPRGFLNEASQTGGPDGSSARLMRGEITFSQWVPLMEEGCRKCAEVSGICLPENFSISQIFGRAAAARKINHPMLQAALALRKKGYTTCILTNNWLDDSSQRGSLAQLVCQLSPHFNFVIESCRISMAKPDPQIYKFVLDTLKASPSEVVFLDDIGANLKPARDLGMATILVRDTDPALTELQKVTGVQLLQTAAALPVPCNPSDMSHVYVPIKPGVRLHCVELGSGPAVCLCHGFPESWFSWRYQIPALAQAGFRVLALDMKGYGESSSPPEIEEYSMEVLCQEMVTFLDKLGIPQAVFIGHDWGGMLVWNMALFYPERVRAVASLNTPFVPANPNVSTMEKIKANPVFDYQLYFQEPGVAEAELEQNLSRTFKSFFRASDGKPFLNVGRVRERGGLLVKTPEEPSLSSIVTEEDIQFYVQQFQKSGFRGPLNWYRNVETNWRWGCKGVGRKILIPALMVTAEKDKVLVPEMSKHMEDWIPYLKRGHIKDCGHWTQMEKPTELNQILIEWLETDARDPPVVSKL

Target: Dog sEH (Canis lupus familiaris, UniProt A0A8I3NJL8)
Assay: Primary screen (end point) of the sEH inhibitor library, PHOME substrate
Assay type: biochemical
Conditions: [I] = 100 nM, primary end-point screening; 0.1 µM

O=C(NCCCc1ccccc1)NC12CC3CC(CC(C3)C1)C2
Dog sEH Inhibition (%) P.: 90% and < 90%
